Measured data: PubChem BioAssay AID504774 (Drosophila RNAi Screening Center, 2011)
The screen tested about 23,000 reagents; below is a random part of those that have a named target and a result. 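Values are quantile-normalised luminescence on an arbitrary scale; higher means more cells surviving MMS.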 A plus sign joins genes that one reagent is predicted to hit. Not all columns of the deposit are shown.

Assay: 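Fly genes whose loss alters survival after alkylation damage to DNA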 (primary screen)
Cell system: Drosophila Kc167 cells
Knock-down reagent: long dsRNA against Drosophila genes, about 0.25 µg dsRNA per well
Time to read-out: about 6 days: 3 days knock-down, then 3 days with or without MMS
Treatment: methyl methanesulphonate 0.004% (w/v) for 3 days after knock-down
Read-out: 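ATP-dependent luminescence as a measure of live cells in MMS-exposed wells, quantile normalised within each plate, with replicate values also given as a mean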
Direction: mean viability with MMS and viability with MMS: higher = more surviving cells after MMS

| target | amplicon | mean viability with MMS | viability with MMS, replicate 1 |
| --- | --- | --- | --- |
| CG2641 | DRSC15441 | 3.56e6 | 4.05e6 |
| dgrn | DRSC12154 | 3.43e6 | 3.75e6 |
| CG17821 | DRSC06696 | 3.51e6 | 3.99e6 |
| eIF2Bbeta | DRSC18465 | 3.36e6 | 3.84e6 |
| CG13392 | DRSC02262 | 3.68e6 | 4.04e6 |
| grim | DRSC11352 | 3.15e6 | 3.58e6 |
| grim | DRSC23169 | 3.31e6 | 3.53e6 |
| Tbce | DRSC04897 | 3.31e6 | 3.72e6 |
| CG33557 | DRSC17854 | 3.69e6 | 4.11e6 |
| Xe7 | DRSC12307 | 3.85e6 | 4.37e6 |
| Pex10 | DRSC08599 | 3.60e6 | 4.03e6 |
| Pex10 | DRSC22021 | 3.63e6 | 4.18e6 |
| Jupiter | DRSC15204 | 3.45e6 | 3.86e6 |
| Jupiter | DRSC15205 | 3.65e6 | 4.02e6 |
| Jupiter | DRSC15389 | 3.57e6 | 4.01e6 |
| Arc1 | DRSC06159 | 3.37e6 | 3.78e6 |
| PIP82 | DRSC18694 | 3.78e6 | 4.26e6 |
| Fbxl4 | DRSC19805 | 3.65e6 | 4.08e6 |
| flfl | DRSC16474 | 3.44e6 | 3.84e6 |
| crok | DRSC02593 | 3.67e6 | 4.18e6 |
| crok | DRSC21349 | 3.81e6 | 4.30e6 |
| CG12316 | DRSC09879 | 3.62e6 | 4.09e6 |
| qjt | DRSC10060 | 3.47e6 | 3.94e6 |
| CG13659 | DRSC14660 | 3.50e6 | 3.99e6 |
| CG3345 | DRSC00596 | 3.67e6 | 4.26e6 |
| Obp58c | DRSC04166 | 3.72e6 | 4.02e6 |
| p38a | DRSC16743 | 3.74e6 | 4.18e6 |
| ZAP3 | DRSC17852 | 3.44e6 | 4.00e6 |
| ZAP3 | DRSC17853 | 3.70e6 | 4.16e6 |
| ZAP3 | DRSC18249 | 3.43e6 | 3.92e6 |
| tmod | DRSC13993 | 3.65e6 | 4.09e6 |
| tmod | DRSC14314 | 3.53e6 | 3.81e6 |
| tmod | DRSC15076 | 3.52e6 | 3.90e6 |
| tmod | DRSC17062 | 3.53e6 | 4.04e6 |
| CG3358 | DRSC04992 | 3.65e6 | 4.10e6 |
| IntS4 | DRSC17810 | 3.45e6 | 3.52e6 |
| CG3808 | DRSC10377 | 3.37e6 | 3.76e6 |
| NimC1 | DRSC01879 | 3.56e6 | 4.04e6 |
| CG42686 (retired record) | DRSC15247 | 2.87e6 | 3.57e6 |
| CG42686 (retired record) | DRSC15248 | 3.65e6 | 4.20e6 |
| CG42686 (retired record) | DRSC22995 | 3.57e6 | 3.91e6 |
| GalT1 | DRSC22238 | 3.49e6 | 3.93e6 |
| Cdc50 | DRSC20224 | 3.79e6 | 4.19e6 |
| CG34251 | DRSC09498 | 3.53e6 | 4.04e6 |
| CG34251 | DRSC09500 | 3.74e6 | 4.30e6 |
| Atg1 | DRSC09809 | 3.58e6 | 4.13e6 |
| Atg1 | DRSC09810 | 3.63e6 | 4.07e6 |
| CG17168 | DRSC20904 | 3.30e6 | 3.79e6 |
| ftz | DRSC12626 | 3.61e6 | 4.11e6 |
| gammaSnap1 | DRSC04686 | 3.59e6 | 4.03e6 |
| CheB93b | DRSC21762 | 3.46e6 | 3.84e6 |
| Tsp | DRSC02144 | 3.46e6 | 3.96e6 |
| Tsp | DRSC02145 | 3.53e6 | 3.93e6 |
| SREBP | DRSC11182 | 3.44e6 | 3.80e6 |
| CG12355 | DRSC09381 | 1.61e6 | 3.67e6 |
| CG12355 | DRSC09883 | 3.65e6 | 4.03e6 |
| AnxB10 | DRSC20677 | 3.56e6 | 4.00e6 |
| alka | DRSC06136 | 3.46e6 | 3.90e6 |
| CG32846 | DRSC08012 | 3.55e6 | 4.10e6 |
| CG14739 | DRSC14959 | 3.49e6 | 3.97e6 |
| Gr22a | DRSC22283 | 3.54e6 | 4.03e6 |
| Zip102B | DRSC17155 | 3.69e6 | 4.28e6 |
| Rh4 + sina | DRSC11396 | 3.72e6 | 4.17e6 |
| CG42780 | DRSC17514 | 3.54e6 | 4.02e6 |
| Frq1 | DRSC19961 | 3.55e6 | 4.00e6 |
| CG4101 | DRSC10400 | 3.57e6 | 4.05e6 |
| Bhmt | DRSC02079 | 3.56e6 | 4.05e6 |
| Kcmf1 | DRSC14459 | 3.54e6 | 4.10e6 |

Ordered by “mean viability with MMS” (high to low): 8 of the entries above
| target | amplicon | mean viability with MMS | viability with MMS, replicate 1 |
| --- | --- | --- | --- |
| CG12355 | DRSC09883 | 3.65e6 | 4.03e6 |
| AnxB10 | DRSC20677 | 3.56e6 | 4.00e6 |
| Tsp | DRSC02145 | 3.53e6 | 3.93e6 |
| CheB93b | DRSC21762 | 3.46e6 | 3.84e6 |
| Tsp | DRSC02144 | 3.46e6 | 3.96e6 |
| alka | DRSC06136 | 3.46e6 | 3.90e6 |
| SREBP | DRSC11182 | 3.44e6 | 3.80e6 |
| CG12355 | DRSC09381 | 1.61e6 | 3.67e6 |
